PubChem BioAssay AID1053208 – Peter MacCallum Cancer Centre – 2014
The deposit covers about 17,000 reagents; this is a part drawn at random. 788 of all reagents (4.7%) count as active. 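Calls rest on z-score classes alone; an extra cut-off of viability at most 70% of control was not applied to them.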

Purpose: 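Find knock-downs that sensitise mouse osteosarcoma cells to doxorubicin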 (primary screen)
Cells: mouse osteosarcoma cells, early-passage culture from an engineered mouse model of fibroblastic bone tumour
Reagent: siRNA pool against mouse genes, 40 nM
Timing: about 120 h (48 h before drug, then 72 h with drug)
Treatment: doxorubicin 100 nM for 72 h, roughly 30-40% inhibitory dose
Detection: 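Viability read as ATP luminescence after 72 h of 100 nM doxorubicin or none, duplicate wells averaged, scaled to non-targeting siRNA, then expressed as robust z-scores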
Reading the numbers: viability z-score with doxorubicin and doxorubicin viability vs non-targeting: higher = more viable cells under doxorubicin; viability z-score without drug: higher = more viable cells with knock-down alone; z-score of drug to no-drug ratio: higher = less drug sensitisation by knock-down
Active means: 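Called active if knock-down leaves viability unchanged without drug (z within -2 to 2) but lowers it with doxorubicin (z at or under -2)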

| gene knocked down | combined z-score class | viability z-score with doxorubicin | viability z-score without drug | z-score of drug to no-drug ratio | doxorubicin viability vs non-targeting | activity call |
| --- | --- | --- | --- | --- | --- | --- |
| Rftn1 | no change with or without drug | 0.56 | 1.01 | 0 | 0.99 | inactive |
| Prol1 | no change with or without drug | -1.57 | -0.51 | -1.24 | 0.8 | inactive |
| Klf10 | no change with or without drug | -1.35 | 0.17 | -1.46 | 0.82 | inactive |
| Ptdss2 | no change with or without drug | -1.57 | 1.52 | -2.36 | 0.8 | inactive |
| Cpa1 | no change with or without drug | -1.57 | 0.17 | -1.69 | 0.8 | inactive |
| Gpr162 | no change with or without drug | -1.12 | 0.17 | -1.12 | 0.84 | inactive |
| Elk4 | no change with or without drug | -0.9 | 0.17 | -0.9 | 0.86 | inactive |
| Tchp | no change with or without drug | 0.22 | -0.51 | 0.67 | 0.96 | inactive |
| Dmtf1 | no change with or without drug | 0 | 0 | 0.11 | 0.94 | inactive |
| Gp1ba | no change with or without drug | 0.56 | 0.84 | 0.11 | 0.99 | inactive |
| Brat1 | low cell count with doxorubicin only | -3.37 | 0.17 | -3.48 | 0.64 | active |
| Mmp8 | no change with or without drug | 1.35 | 1.52 | 0.45 | 1.06 | inactive |
| H1f9 | no change with or without drug | 1.35 | 0.51 | 1.12 | 1.06 | inactive |
| Prex1 | no change with or without drug | -0.45 | 0.51 | -0.67 | 0.9 | inactive |
| Tex21 | no change with or without drug | 0.67 | -0.17 | 0.9 | 1 | inactive |
| A730020M07Rik | no change with or without drug | 0.22 | 0.51 | 0 | 0.96 | inactive |
| Trmt9b | no change with or without drug | 0.9 | 1.85 | -0.22 | 1.02 | inactive |
| Tas2r105 | no change with or without drug | -1.12 | -1.69 | 0.11 | 0.84 | inactive |
| Ankrd13b | no change with or without drug | 0 | -0.67 | 0.56 | 0.94 | inactive |
| Ndufb8 | low cell count with and without drug | -2.02 | -3.54 | 0.56 | 0.76 | inactive |
| Tmprss15 | no change with or without drug | 1.24 | -0.51 | 1.8 | 1.05 | inactive |
| Pias4 | no change with or without drug | 0 | -0.34 | 0.34 | 0.94 | inactive |
| Tas2r119 | no change with or without drug | 1.12 | -0.34 | 1.57 | 1.04 | inactive |
| Tcea1 | no change with or without drug | 0.22 | 0.67 | -0.11 | 0.96 | inactive |
| Cyp2c38 | no change with or without drug | -0.45 | 0.84 | -0.9 | 0.9 | inactive |
| Rock2 | high cell count without drug only | 1.69 | 3.71 | -0.56 | 1.09 | inactive |
| Zfp367 | no change with or without drug | -0.67 | -0.51 | -0.22 | 0.88 | inactive |
| Mbl1 | no change with or without drug | 0.22 | -0.17 | 0.45 | 0.96 | inactive |
| Plxdc2 | no change with or without drug | 0.67 | -1.52 | 2.02 | 1 | inactive |
| Ifna7 | low cell count without drug only | -1.91 | -2.87 | 0.11 | 0.77 | inactive |
| Dpy19l1 | no change with or without drug | -1.01 | -0.17 | -0.9 | 0.85 | inactive |
| Rspo1 | no change with or without drug | -0.22 | 0.17 | -0.22 | 0.92 | inactive |
| Arl6ip1 | no change with or without drug | 1.35 | 0.17 | 1.35 | 1.06 | inactive |
| Scmh1 | no change with or without drug | -0.45 | -0.84 | 0.22 | 0.9 | inactive |

Active calls (from the list above):
| gene knocked down | combined z-score class | viability z-score with doxorubicin | viability z-score without drug | z-score of drug to no-drug ratio | doxorubicin viability vs non-targeting | activity call |
| --- | --- | --- | --- | --- | --- | --- |
| Brat1 | low cell count with doxorubicin only | -3.37 | 0.17 | -3.48 | 0.64 | active |
